Library screening results

Sequences of proteins named here, by UniProt entry; tags and fusion partners are left off.
UniProt E9BF75, entry or part of it: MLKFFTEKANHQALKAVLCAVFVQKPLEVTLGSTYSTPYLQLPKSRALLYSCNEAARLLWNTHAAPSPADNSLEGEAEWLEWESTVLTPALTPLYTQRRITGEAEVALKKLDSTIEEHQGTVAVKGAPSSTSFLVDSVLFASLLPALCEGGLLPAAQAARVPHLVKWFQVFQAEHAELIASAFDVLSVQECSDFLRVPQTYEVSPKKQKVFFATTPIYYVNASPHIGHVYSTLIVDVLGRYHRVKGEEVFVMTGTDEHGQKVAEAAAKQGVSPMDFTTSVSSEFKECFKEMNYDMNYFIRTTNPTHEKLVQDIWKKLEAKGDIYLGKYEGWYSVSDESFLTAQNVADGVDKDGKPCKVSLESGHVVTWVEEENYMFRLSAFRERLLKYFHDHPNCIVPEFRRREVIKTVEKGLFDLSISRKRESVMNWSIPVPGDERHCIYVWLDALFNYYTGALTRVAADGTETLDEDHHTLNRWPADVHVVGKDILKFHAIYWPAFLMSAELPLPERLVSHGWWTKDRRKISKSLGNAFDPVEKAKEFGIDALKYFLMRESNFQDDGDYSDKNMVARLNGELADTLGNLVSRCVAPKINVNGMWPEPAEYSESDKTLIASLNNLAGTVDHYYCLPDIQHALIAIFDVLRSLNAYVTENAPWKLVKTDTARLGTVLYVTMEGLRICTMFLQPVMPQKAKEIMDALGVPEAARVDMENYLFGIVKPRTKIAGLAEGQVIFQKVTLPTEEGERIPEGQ

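Primary screen of methionyl-tRNA synthetase; the read-out is not stated. Target: Methionyl-tRNA synthetase (putative), Leishmania donovani (UniProt E9BF75). The test concentration is not given. Values are per cent inhibition. Of about 68,000 compounds tested this way, about 24 (0.035%) reached 50% or more in at least one test.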

Results are percentages, as filed. How 0% and 100% were set is not recorded. Most values in the screen are low, and negative values occur. The compounds are a random part of those screened.

With O=C(C1CCC1)N1C(CN2CCOCC2)[C@]2(O)CC[C@H]1CC2 (stereo partly specified) the screen gave 5.676%.
With Cc1nc2c(c(=O)n1C)CN(C(=O)C1CCCN(C3CCCC3)C1)C2 (stereo unspecified) the screen gave 7.711%.
With Cc1cc(NCC(=O)N(C)C)c(C(N)=O)cc1F the screen gave 13.17%.
With COCCN(Cc1ccc(C)cc1)CC1CCOC1 (stereo unspecified) the screen gave 12.32%.
With Cc1nn(C)c(C)c1C1CCCN1Cc1nc(-c2cccs2)no1 (stereo unspecified) the screen gave 12.78%.
With O=C1CC[C@H](C(=O)N(Cc2cccc(Br)c2)C2CC2)N1 the screen gave 17.01%.
With CO[C@H]1CCN(S(=O)(=O)c2cn(C)cn2)[C@H]1Cc1cnn(C)c1 the screen gave 9.623%.
With CCOc1ccccc1-n1c(-c2cn(CC)nc2C)n[nH]c1=O the screen gave 10.47%.
With Cc1ncc(CN(C)CC(O)c2cccc(C(F)(F)F)c2)s1 (stereo unspecified) the screen gave 1.804%.
With O=C(CN1CCOC(Cn2cccn2)C1)Nc1nncs1 (stereo unspecified) the screen gave 13.89%.
With O=C(NC1CC1)[C@@H]1CCO[C@@H]2CCN(C3CCOCC3)C[C@@H]21 the screen gave 7.087%.
With COc1ccc(NC(=O)c2ccccc2NCc2ncnn2C)cc1 the screen gave 16.77%.
With Cc1nc(C2CCCN2CC(=O)NCCc2ccsc2)no1 (stereo unspecified) the screen gave 16.19%.
With COc1ccc(-n2ccc(C(=O)NCCN3CCCC(C)C3)n2)cc1 (stereo unspecified) the screen gave 3.134%.
With CN(c1nccc(-c2cnc3sccn3c2=O)n1)C1CCCCC1 the screen gave 8.495%.
With CCc1n[nH]c(C2CN(C(=O)CCCn3cccn3)CCO2)n1 (stereo unspecified) the screen gave 1.737%.
With CC(C)(O)CCc1ccc(C(=O)N2CCN(CC(F)(F)F)CC2)cc1 the screen gave 13.61%.
With Cn1nc(C2CCCN(Cc3cccs3)C2)c2nccnc21 (stereo unspecified) the screen gave 14.58%.
With COc1ccccc1OCC(=O)n1nc(C)c(C)c1C the screen gave 16.77%.
With CN1N=C(C(=O)NCCc2csc(-c3ccccc3)n2)CCC1=O the screen gave 6.162%.
With COc1ccc(CCCN(C)C(=O)c2cc(Cl)c[nH]2)cc1OC the screen gave 2.514%.
With O=C(NCCNC(=O)C1CC1)c1sccc1Br the screen gave 11.98%.
With CCN1CC2(CCC1=O)CCN(c1ccc(C(C)=O)cn1)CC2 the screen gave 12.53%.
With CCN1CC2(CCC1=O)CCN(C(=O)c1ccc(Cl)cc1O)CC2 the screen gave 13.27%.
With CCCc1nnc(NCCc2noc(C3CCC3)n2)o1 the screen gave 15.05%.
With CC(C)COCC(NC(=O)c1cccnc1)c1ccco1 (stereo unspecified) the screen gave 10.46%.
With CC(C)(C)n1cc(C(=O)N2CCN(Cc3ccccc3F)CC2)cn1 the screen gave 19.39%.
With CN(C)[C@@H]1CCN(C(=O)c2ccsc2)[C@H]1Cc1cnn(C)c1 the screen gave 8.711%.
With Cc1ccc(CN2CCOCC2)cc1NCc1ccsc1 the screen gave 9.278%.
With CO[C@@H]1CCN(c2ncc(F)cn2)[C@H]1Cc1cnn(C)c1 the screen gave 13.78%.
With Cc1nn(C)cc1C1=NS(=O)(=O)N(C)C(C(=O)Nc2ccc(Br)cc2)=C1 the screen gave 5.774%.
With O=S1(=O)NCC2(CCNCC2)COc2ccccc21 the screen gave 12.68%.
With COc1ccc(CN2CCC3(CC2)NC(=O)CC3c2ccncc2)cc1 (stereo unspecified) the screen gave 4.721%.
With O=C(c1ccccc1F)N(CCCO)S(=O)(=O)c1cccs1 the screen gave 5.928%.
With CC(CO)NCc1csc2c1CCCC2 (stereo unspecified) the screen gave 14.25%.
With CC(Oc1ccccc1)C(=O)N1CCCN(Cc2nccn2C)CC1 (stereo unspecified) the screen gave 8.883%.
With NC(=O)Cn1cc(NC(=O)NCCN2CCc3ccccc3C2)cn1 the screen gave 24.31%.
With CC[C@@]1(O)CCN(C(=O)CCNC(=O)c2ccc(F)cc2)C[C@H]1O the screen gave 11.06%.
With CCCc1nc(NCCCn2cccn2)c2c(n1)c(C)nn2CC the screen gave 4.271%.
With CCn1ncc2c1CN(CCc1cccc(Cl)c1)CC2COC (stereo unspecified) the screen gave 7.038%.
With COc1ccc(Br)cc1CC(=O)Nc1cc(C)n[nH]1 the screen gave 6.355%.
With Cc1cccc(N2CCN(CC(=O)N3CCCC(N(C)C)CC3)CC2)c1 (stereo unspecified) the screen gave 19.31%.
With N#Cc1c(Cl)nsc1NCc1ccc(N2CCSCC2)cc1 the screen gave 4.963%.
With Cn1cnc2c1CCN(CC(=O)NC1CCCCNC1=O)C2 (stereo unspecified) the screen gave 15.86%.
With Cc1cc(-c2cccc3c2CCNC3)cnc1-n1cnnc1 the screen gave 12.73%.
With Cc1nn(C2CCS(=O)(=O)C2)c(O)c1Cc1cccc(Cl)c1 (stereo unspecified) the screen gave 7.576%.
With O=C1CC(c2ccc(Cl)c(Cl)c2)c2c(n3ccsc3nc2=O)N1 (stereo unspecified) the screen gave 5.152%.
With Oc1ccccc1-c1n[nH]c(C2CCCO2)n1 (stereo unspecified) the screen gave 5.382%.
With Cc1cnn(CC2CN(CC(=O)N3CCc4ccccc43)CCO2)c1 (stereo unspecified) the screen gave 13.29%.
With Cc1nc(CN2CCOCC3(CCN(c4ncccn4)CC3)C2)cs1 the screen gave 13.77%.
With CN(C)CC1(O)CCN(C(=O)c2ccc(-n3cnnc3)cc2Cl)C1 (stereo unspecified) the screen gave -5.514%.
With Cc1cc(N(C)Cc2ncc[nH]2)nc(-c2cccnc2)n1 the screen gave 18.4%.
With CC[C@H]1COCCN1C(=O)c1ccc(OC)c(N2CCOCC2)c1 the screen gave 8.541%.

The first 4 entries again:

{"smiles": "O=C(C1CCC1)N1C(CN2CCOCC2)[C@]2(O)CC[C@H]1CC2", "stereo": "stereo partly specified", "Inhibition": 5.676}
{"smiles": "Cc1nc2c(c(=O)n1C)CN(C(=O)C1CCCN(C3CCCC3)C1)C2", "stereo": "stereo unspecified", "Inhibition": 7.711}
{"smiles": "Cc1cc(NCC(=O)N(C)C)c(C(N)=O)cc1F", "Inhibition": 13.17}
{"smiles": "COCCN(Cc1ccc(C)cc1)CC1CCOC1", "stereo": "stereo unspecified", "Inhibition": 12.32}

From ChEMBL document CHEMBL3988442, “University of Dundee, Small-Polar-MMV Screening Library” (2021).